# The supplement of paper PMC12819154, “High-throughput peptide-centric local stability assay extends protein–ligand identification to membrane proteins, tissues and bacteria” (Nature Structural & Molecular Biology, 2025)
# Protein sequences, listed by entry. Tags and fused reporters are not part of them. Lines headed by an entry give the natural chain unless they say otherwise; changes in a name come on top.
# UniProt O35660: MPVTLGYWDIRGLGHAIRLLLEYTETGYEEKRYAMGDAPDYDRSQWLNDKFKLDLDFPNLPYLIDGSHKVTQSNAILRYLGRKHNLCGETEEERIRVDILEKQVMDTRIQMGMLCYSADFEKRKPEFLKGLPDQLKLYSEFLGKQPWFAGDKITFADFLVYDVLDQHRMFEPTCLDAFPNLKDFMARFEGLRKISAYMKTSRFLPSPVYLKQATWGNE
# UniProt O70571, whole entry: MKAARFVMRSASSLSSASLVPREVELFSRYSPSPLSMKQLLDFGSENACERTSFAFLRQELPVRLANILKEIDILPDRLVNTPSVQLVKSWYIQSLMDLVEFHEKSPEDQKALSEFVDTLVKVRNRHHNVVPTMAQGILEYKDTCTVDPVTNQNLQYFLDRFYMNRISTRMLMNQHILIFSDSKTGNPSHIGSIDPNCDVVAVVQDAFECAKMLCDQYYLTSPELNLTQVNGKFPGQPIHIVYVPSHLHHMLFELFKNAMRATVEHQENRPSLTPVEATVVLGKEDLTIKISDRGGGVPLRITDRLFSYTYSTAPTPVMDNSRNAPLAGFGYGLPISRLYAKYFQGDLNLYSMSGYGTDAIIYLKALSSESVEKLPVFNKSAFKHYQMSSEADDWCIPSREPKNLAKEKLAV
# UniProt O88512: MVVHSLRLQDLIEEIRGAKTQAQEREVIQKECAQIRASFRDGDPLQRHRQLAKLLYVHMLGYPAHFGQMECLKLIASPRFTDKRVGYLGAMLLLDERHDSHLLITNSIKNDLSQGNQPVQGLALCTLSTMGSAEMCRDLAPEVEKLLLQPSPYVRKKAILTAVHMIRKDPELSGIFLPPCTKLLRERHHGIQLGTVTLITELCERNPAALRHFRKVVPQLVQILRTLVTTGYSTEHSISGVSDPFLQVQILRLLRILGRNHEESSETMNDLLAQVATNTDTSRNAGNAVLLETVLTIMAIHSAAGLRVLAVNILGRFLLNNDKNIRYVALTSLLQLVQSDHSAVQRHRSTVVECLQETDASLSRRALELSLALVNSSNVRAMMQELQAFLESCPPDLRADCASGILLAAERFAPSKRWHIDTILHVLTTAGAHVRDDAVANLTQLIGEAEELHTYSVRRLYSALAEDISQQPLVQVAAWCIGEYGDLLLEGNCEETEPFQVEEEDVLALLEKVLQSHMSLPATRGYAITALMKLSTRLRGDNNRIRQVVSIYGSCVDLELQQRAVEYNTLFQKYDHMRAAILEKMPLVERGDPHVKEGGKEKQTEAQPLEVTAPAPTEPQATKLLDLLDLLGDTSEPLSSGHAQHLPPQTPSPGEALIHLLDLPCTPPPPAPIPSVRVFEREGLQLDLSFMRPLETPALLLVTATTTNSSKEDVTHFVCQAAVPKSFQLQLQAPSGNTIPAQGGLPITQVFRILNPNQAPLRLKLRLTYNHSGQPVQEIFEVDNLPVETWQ
# UniProt O54940: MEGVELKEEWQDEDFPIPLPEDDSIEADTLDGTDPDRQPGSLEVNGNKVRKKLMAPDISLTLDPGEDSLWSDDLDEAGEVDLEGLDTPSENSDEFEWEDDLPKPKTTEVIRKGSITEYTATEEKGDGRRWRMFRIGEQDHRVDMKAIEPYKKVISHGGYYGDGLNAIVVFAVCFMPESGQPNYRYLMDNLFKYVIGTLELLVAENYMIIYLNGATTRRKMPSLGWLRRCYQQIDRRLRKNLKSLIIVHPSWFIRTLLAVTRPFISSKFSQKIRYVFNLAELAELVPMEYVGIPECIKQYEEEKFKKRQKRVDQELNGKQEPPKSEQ
# UniProt O35627: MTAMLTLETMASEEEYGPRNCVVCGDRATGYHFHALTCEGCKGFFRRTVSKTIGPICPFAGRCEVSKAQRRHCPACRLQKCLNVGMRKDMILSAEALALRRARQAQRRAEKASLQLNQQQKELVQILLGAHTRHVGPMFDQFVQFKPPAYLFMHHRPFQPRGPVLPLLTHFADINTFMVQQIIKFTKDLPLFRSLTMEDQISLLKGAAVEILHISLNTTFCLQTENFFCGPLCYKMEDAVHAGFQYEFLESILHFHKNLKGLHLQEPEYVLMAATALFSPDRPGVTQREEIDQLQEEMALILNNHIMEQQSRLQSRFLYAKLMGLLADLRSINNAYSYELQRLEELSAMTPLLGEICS
# UniProt O35643: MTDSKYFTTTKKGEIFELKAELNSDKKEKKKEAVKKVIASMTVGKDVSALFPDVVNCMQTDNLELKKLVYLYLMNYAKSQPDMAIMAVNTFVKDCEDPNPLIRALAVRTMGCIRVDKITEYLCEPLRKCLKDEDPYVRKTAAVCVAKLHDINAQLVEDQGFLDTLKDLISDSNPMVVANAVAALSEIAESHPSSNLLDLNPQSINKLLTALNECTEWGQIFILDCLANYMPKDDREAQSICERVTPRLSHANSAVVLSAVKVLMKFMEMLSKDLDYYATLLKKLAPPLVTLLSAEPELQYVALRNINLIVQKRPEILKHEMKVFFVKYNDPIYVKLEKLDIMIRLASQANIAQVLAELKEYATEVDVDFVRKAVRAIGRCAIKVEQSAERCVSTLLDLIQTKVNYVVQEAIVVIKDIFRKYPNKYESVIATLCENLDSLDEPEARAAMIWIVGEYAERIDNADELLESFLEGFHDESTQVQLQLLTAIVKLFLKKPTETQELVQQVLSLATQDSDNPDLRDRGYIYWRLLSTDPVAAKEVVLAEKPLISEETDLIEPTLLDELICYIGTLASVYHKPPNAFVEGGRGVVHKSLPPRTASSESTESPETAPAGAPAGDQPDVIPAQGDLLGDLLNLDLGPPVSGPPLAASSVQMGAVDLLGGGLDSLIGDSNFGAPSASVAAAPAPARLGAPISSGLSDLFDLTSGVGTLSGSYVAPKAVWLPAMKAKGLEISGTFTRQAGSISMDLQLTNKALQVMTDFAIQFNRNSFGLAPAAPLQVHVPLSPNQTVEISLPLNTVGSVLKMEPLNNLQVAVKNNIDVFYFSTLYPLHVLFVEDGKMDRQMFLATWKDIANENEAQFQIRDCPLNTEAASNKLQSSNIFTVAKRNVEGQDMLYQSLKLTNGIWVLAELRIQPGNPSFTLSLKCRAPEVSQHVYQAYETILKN
# UniProt O70570: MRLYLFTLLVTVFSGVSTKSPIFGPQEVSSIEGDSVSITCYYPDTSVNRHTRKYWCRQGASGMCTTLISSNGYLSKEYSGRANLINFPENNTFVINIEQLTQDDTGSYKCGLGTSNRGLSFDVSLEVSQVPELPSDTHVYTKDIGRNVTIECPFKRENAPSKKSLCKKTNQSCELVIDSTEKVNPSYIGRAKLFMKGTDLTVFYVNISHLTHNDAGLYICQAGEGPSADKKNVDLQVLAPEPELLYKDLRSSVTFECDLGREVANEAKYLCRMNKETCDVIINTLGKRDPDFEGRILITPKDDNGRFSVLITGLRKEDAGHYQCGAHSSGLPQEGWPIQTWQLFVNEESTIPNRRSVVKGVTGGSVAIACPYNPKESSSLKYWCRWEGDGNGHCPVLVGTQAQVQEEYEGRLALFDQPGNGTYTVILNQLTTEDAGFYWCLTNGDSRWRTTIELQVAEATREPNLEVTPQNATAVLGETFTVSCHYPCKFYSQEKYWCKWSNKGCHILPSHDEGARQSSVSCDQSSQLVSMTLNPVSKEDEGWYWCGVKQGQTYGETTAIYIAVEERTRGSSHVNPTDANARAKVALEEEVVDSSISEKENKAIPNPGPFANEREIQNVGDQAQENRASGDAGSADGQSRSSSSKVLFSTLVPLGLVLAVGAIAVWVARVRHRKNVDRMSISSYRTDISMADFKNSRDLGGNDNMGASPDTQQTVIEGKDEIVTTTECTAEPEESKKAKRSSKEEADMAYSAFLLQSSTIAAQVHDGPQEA
# UniProt O35710: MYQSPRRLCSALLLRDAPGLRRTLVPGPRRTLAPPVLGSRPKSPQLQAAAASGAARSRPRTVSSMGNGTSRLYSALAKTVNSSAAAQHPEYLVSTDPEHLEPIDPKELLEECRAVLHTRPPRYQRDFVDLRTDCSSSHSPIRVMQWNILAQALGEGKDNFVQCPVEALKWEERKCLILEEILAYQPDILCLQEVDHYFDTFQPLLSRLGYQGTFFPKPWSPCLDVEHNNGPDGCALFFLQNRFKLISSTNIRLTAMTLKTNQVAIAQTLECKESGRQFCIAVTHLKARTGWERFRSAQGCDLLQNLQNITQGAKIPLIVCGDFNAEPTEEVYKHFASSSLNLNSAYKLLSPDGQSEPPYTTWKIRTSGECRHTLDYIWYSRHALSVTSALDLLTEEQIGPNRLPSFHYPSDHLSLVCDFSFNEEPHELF
# UniProt O35864, whole entry: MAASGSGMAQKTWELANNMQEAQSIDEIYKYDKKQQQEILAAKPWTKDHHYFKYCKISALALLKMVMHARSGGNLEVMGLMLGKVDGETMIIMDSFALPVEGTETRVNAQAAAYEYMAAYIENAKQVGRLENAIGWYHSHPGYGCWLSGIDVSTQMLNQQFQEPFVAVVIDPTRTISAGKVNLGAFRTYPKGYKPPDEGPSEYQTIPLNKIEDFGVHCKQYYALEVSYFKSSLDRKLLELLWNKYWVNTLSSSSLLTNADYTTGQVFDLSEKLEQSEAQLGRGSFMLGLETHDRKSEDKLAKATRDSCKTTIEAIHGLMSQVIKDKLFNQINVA
# UniProt O55203: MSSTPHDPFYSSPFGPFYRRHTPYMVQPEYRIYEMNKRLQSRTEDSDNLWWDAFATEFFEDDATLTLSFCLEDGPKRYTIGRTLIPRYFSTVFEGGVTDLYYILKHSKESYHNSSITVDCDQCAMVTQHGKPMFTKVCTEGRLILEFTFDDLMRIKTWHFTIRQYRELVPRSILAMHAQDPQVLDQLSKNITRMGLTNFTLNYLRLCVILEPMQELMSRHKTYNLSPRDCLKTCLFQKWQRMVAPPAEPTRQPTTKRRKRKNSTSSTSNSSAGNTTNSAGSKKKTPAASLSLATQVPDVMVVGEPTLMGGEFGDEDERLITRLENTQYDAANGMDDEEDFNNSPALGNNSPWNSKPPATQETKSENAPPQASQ
# UniProt O70281: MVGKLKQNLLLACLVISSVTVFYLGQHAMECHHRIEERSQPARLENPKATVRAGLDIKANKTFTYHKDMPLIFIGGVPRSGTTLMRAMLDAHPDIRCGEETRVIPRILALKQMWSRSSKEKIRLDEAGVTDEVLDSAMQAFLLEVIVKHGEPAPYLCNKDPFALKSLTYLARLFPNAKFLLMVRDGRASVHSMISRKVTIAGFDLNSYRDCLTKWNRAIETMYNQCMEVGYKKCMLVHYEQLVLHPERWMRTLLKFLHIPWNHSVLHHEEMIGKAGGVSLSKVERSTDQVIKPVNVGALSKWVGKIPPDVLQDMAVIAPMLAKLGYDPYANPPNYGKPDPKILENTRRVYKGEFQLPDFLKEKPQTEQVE
# UniProt O70451: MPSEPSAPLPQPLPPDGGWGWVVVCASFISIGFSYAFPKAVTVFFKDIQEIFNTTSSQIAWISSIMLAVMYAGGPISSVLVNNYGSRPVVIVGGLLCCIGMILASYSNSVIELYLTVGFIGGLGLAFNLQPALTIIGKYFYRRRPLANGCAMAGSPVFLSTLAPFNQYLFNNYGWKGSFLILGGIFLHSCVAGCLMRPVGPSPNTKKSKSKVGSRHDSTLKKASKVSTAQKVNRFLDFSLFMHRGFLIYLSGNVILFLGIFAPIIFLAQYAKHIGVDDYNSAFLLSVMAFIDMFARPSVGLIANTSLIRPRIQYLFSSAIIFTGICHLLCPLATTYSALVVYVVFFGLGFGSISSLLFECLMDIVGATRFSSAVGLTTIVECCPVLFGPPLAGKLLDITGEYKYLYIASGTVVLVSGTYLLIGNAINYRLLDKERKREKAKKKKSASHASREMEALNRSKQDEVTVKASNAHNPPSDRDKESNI
# UniProt O55071: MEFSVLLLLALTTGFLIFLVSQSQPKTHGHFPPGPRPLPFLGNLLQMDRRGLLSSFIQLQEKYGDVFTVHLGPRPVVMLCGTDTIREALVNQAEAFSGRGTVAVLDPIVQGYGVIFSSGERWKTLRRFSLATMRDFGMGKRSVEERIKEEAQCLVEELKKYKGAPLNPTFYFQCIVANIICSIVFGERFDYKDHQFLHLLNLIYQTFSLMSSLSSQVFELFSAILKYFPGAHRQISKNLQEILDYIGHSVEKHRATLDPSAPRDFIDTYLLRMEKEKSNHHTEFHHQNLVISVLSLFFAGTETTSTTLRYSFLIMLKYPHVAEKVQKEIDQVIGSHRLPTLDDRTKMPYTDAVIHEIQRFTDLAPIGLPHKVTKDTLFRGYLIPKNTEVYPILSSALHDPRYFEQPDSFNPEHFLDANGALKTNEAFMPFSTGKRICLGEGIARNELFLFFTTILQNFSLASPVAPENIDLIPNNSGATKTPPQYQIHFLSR
# UniProt O35671: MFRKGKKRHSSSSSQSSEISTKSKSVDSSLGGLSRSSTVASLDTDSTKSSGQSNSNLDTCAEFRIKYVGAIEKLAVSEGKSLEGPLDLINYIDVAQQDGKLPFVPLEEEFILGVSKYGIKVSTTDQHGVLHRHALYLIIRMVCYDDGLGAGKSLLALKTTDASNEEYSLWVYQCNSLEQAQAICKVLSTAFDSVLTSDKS
# The list shows a part of the results. Most values lie at the level of the controls, where differences are scatter.
# Compound: CN[C@@H]1C[C@H]2O[C@@](C)([C@@H]1OC)n1c3ccccc3c3c4c(c5c6ccccc6n2c5c31)C(=O)NC4 [staurosporine]
# Experiment: log2 fold change of tryptic peptide abundance, ligand vs vehicle (limited proteolysis) (log2 ratio); higher = more trypsin-susceptible (destabilized)
# Settings: ligand concentration: 20 uM; sample: mouse liver crude lysate; replicate design: treated separately
row,Target,log2 fold change
1,"UniProt O88848 (peptide sequence: KKEVHVLCLGLDNSGK, peptide start residue: 15)",0.857
2,"UniProt O35660 (peptide sequence: FKLDLDFPNLPYLIDGSHK, peptide start residue: 51)",-0.676
3,"UniProt O55135 (peptide sequence: HGLLVPNNTTDQELQHIR, peptide start residue: 68)",-0.244
4,"UniProt O70571 (peptide sequence: EVELFSR, peptide start residue: 23)",-0.199
5,"UniProt O35648 (peptide sequence: GELVVDKTK, peptide start residue: 7)",-0.181
6,"UniProt O88512 (peptide sequence: LQDLIEEIR, peptide start residue: 8)",-0.0445
7,"UniProt O54940 (peptide sequence: TLLAVTRPFISSK, peptide start residue: 255)",0.443
8,"UniProt O35491 (peptide sequence: EHLAMMER, peptide start residue: 385)",-0.389
9,"UniProt O35627 (peptide sequence: LMGLLADLR, peptide start residue: 322)",0.131
10,"UniProt O35643 (peptide sequence: NINLIVQK, peptide start residue: 305)",-0.452
11,"UniProt O35855 (peptide sequence: LGGNYGPTVAVQR, peptide start residue: 231)",0.544
12,"UniProt O70570 (peptide sequence: VALEEEVVDSSISEKENK, peptide start residue: 585)",-0.0859
13,"UniProt O54965 (peptide sequence: KGDEYDVCAICLEEYEDGDKLR, peptide start residue: 233)",-0.279
14,"UniProt O35598 (peptide sequence: ESYQMGHMR, peptide start residue: 740)",-0.0968
15,"UniProt O35710 (peptide sequence: TNQVAIAQTLECKESGR, peptide start residue: 260)",0.37
16,"UniProt O88487 (peptide sequence: TLKKDEENDSK, peptide start residue: 166)",0.352

row,Target,log2 fold change
1,"UniProt O55131 (peptide sequence: THMQDLK, peptide start residue: 291)",-0.349
2,"UniProt O88470 (peptide sequence: TGALHSRLDL, peptide start residue: 366)",0.0749
3,"UniProt O35864 (peptide sequence: GSFMLGLETHDRK, peptide start residue: 283)",-0.142
4,"UniProt O55203 (peptide sequence: DCLKTCLFQK, peptide start residue: 268)",0.305
5,"UniProt O35744 (peptide sequence: TLLAIGGWK, peptide start residue: 92)",0.209
6,"UniProt O88384 (peptide sequence: YGTYTLENEHLNR, peptide start residue: 112)",-0.148
7,"UniProt O70281 (peptide sequence: AGGVSLSKVER, peptide start residue: 275)",-0.458
8,"UniProt O88533 (peptide sequence: HSHQDSGFITDYR, peptide start residue: 335)",0.0189
9,"UniProt O70451 (peptide sequence: EMEALNR, peptide start residue: 452)",-0.142
10,"UniProt O55071 (peptide sequence: EIDQVIGSHRLPTLDDR, peptide start residue: 327)",-0.127
11,"UniProt O35671 (peptide sequence: SVDSSLGGLSR, peptide start residue: 25)",-0.38
12,"UniProt O88811 (peptide sequence: HGELITVLDDSDANWWQGENHR, peptide start residue: 225)",-0.415
13,"UniProt O35988 (peptide sequence: RAPSDVGDDMSNK, peptide start residue: 116)",-0.0957
14,"UniProt O70157 (peptide sequence: KLDEALSQYLGER, peptide start residue: 626)",-0.0719
15,"UniProt O88508 (peptide sequence: HPPVESSDTPKDPAVTTK, peptide start residue: 54)",-0.41

# Part of the list above, tab-delimited:
row	Target	log2 fold change
14	UniProt O35598 (peptide sequence: ESYQMGHMR, peptide start residue: 740)	-0.0968
9	UniProt O70451 (peptide sequence: EMEALNR, peptide start residue: 452)	-0.142
